Reference: PubChem BioAssay AID248 (DTP/NCI, 2004)
The list does not hold the whole screen: it gathers tests that were run many times, whatever their T/C, doses with no T/C, and many T/C values between a quarter and a half above the control. Other doses and runs of a compound stand elsewhere. T/C: endpoint of the treated group in % of that of the vehicle group. Some entries give survivors of the animals treated and no T/C: the source files T/C as zero there, which appears to mark a toxic dose or a test without result, not a measured value. Some doses without a T/C left all or most animals alive at the check, yet need not have been tolerated: survival well below the control is almost never listed, so the zero probably covers shortened survival too. Counts of survivors are from the toxicity check (mostly the fifth day) where no day follows; animals may have died later. Schedule codes are those of the source, read here as Q, the interval in days (D) or hours (H), X, the number of doses. Some entries were tested several times; the results are listed from low to high. Some schedule codes hold Z or #, which are not explained here. Some molecules as drawn cover several salts, stereoisomers or complexes of the source; a dose is that of the sample tested. For survival time, this PubChem deposit counts one and a half times the control or more as active, and values a quarter to a half above the control carry no call in these data; other NCI protocols may use other cut-offs.

System: L1210 leukemia ip in BDF1 mice, survival T/C
Assay: NCI In Vivo Anticancer Drug Screen. Data for tumor model L1210 Leukemia (intraperitoneal) in B6D2F1 (BDF1) mice
Conditions: T/C endpoint: mean survival time, higher T/C = longer survival

With `CC(=O)Nc1ccc2cnn(C(C)=O)c2c1` the survivor count (dose: 400.0 mg/kg/injection, schedule: Q01DX009 (ip), vehicle: water) was 0 of 6.
`C=C1CC2(c3ccccc3)C(=O)C1(c1ccccc1)C(c1ccccc1)=C2c1ccccc1` (stereo not given) was tested, and the survivor count (dose: 100.0 mg/kg/injection, schedule: Q01DX001 (ip), vehicle: carboxymethylcellulose (CMC)) was 2 of 4.
In the case of `Cc1ccnc2c3c4c(cc12)c(C)cc(=O)n4CO3`, the T/C (dose: 75.0 mg/kg/injection, schedule: Q01DX009 (ip), vehicle: Klucel (hydroxypropylcellulose) (HPC)) is reported as 125 % of control and the survivor count (dose: 300.0 mg/kg/injection, schedule: Q01DX009 (ip), vehicle: Klucel (hydroxypropylcellulose) (HPC)) is reported as 2 of 6.
With `C=CCn1c(-c2cccs2)nc2c(Cl)ncnc21` the survivor count (dose: 65.0 mg/kg/injection, schedule: Q01DX009 (ip), vehicle: steroid suspending solution) was 0 of 6, the survivor count (dose: 108.0 mg/kg/injection, schedule: Q01DX009 (ip), vehicle: steroid suspending solution) was 0 of 6 and the survivor count (dose: 400.0 mg/kg/injection, schedule: Q01DX001 (ip), vehicle: steroid suspending solution) was 0 of 6. For the same compound, the survivor count (dose: 800.0 mg/kg/injection, schedule: Q01DX001 (ip), vehicle: steroid suspending solution) was 0 of 6.
With `c1ccc(N2CN(c3ccccc3)N(c3ccccc3)CN2c2ccccc2)cc1` the survivor count (dose: 400.0 mg/kg/injection, schedule: Q01DX001 (ip), vehicle: other) was 6 of 6.
In the case of `NC(N)=N/N=C/c1cccc2ccccc12`, the survivor count (dose: 62.5 mg/kg/injection, schedule: Q01DX Z (ip), vehicle: saline) is reported as 0 of 6, the survivor count (dose: 100.0 mg/kg/injection, schedule: Q04DX003 (ip), vehicle: saline sonified) is reported as 0 of 6 and the survivor count (dose: 125.0 mg/kg/injection, schedule: Q01DX Z (ip), vehicle: saline) is reported as 0 of 6. For the same compound, the survivor count (dose: 200.0 mg/kg/injection, schedule: Q04DX003 (ip), vehicle: saline sonified) was 1 of 6, the survivor count (dose: 250.0 mg/kg/injection, schedule: Q01DX Z (ip), vehicle: saline) was 0 of 6 and the survivor count (dose: 400.0 mg/kg/injection, schedule: Q04DX003 (ip), vehicle: saline sonified) was 1 of 6. The survivor count (dose: 500.0 mg/kg/injection, schedule: Q01DX Z (ip), vehicle: saline) was 0 of 6.
`C=C[C@@](C)(O)CC/C=C(/C)CCC=C(C)C` was tested, and the survivor count (dose: 100.0 mg/kg/injection, schedule: Q01DX009 (ip), vehicle: saline) was 6 of 6, the survivor count (dose: 200.0 mg/kg/injection, schedule: Q01DX009 (ip), vehicle: saline) was 2 of 6 and the survivor count (dose: 400.0 mg/kg/injection, schedule: Q01DX009 (ip), vehicle: saline) was 0 of 6.
For `O=C(O)CCc1cccc(O)c1`, the survivor count (dose: 100.0 mg/kg/injection, schedule: Q04DX002 (ip), vehicle: Klucel (hydroxypropylcellulose) (HPC)) was 3 of 3, the survivor count (dose: 200.0 mg/kg/injection, schedule: Q04DX002 (ip), vehicle: Klucel (hydroxypropylcellulose) (HPC)) was 3 of 3 and the survivor count (dose: 400.0 mg/kg/injection, schedule: Q04DX002 (ip), vehicle: Klucel (hydroxypropylcellulose) (HPC)) was 2 of 3.
For `O=C(/C=C(\CN1CCCCC1)c1ccccc1)c1ccccc1`, the survivor count (dose: 200.0 mg/kg/injection, schedule: Q04DX003 (ip), vehicle: Klucel (hydroxypropylcellulose) (HPC)) was 5 of 6.
`CCN(CC)CCNc1nc(N)nc2c1nnn2CC` was tested, and the survivor count (dose: 400.0 mg/kg/injection, schedule: Q04DX003 (ip), vehicle: gum acacia) was 1 of 6.
With `O=C(O)C1CCC(C(=O)O)CC1` (stereo not given) the survivor count (dose: 200.0 mg/kg/injection, schedule: Q01DX001 (ip), vehicle: carboxymethylcellulose (CMC)) was 4 of 4.
In the case of `CCOC(CN(Cc1ccccc1)CC(OCC)OCC)OCC`, the survivor count (dose: 200.0 mg/kg/injection, schedule: Q04DX002 (ip), vehicle: saline with Tween-80) is reported as 3 of 3.
For `O=C1c2ccccc2CC1(Br)Br`, the survivor count (dose: 400.0 mg/kg/injection, schedule: Q04DX003 (ip), vehicle: other) was 1 of 6.
`CC(C)C(CCCC(=O)O)C(=O)O` (stereo not given) was tested, and the survivor count (dose: 400.0 mg/kg/injection, schedule: Q01DX001 (ip), vehicle: carboxymethylcellulose (CMC)) was 2 of 4.
In the case of `Clc1ccc(C(c2ccc(Cl)cc2)C(Cl)(Cl)Cl)cc1`, the survivor count (dose: 100.0 mg/kg/injection, schedule: Q01DX009 (ip), vehicle: Klucel (hydroxypropylcellulose) (HPC)) is reported as 5 of 6 and 6 of 6, the survivor count (dose: 100.0 mg/kg/injection, schedule: Q01DX009 (ip), vehicle: acetone) is reported as 6 of 6 and the survivor count (dose: 200.0 mg/kg/injection, schedule: Q01DX009 (ip), vehicle: Klucel (hydroxypropylcellulose) (HPC)) is reported as 4 of 6. The survivor count (dose: 400.0 mg/kg/injection, schedule: Q01DX001 (ip), vehicle: saline) was 6 of 6, the survivor count (dose: 400.0 mg/kg/injection, schedule: Q01DX009 (ip), vehicle: Klucel (hydroxypropylcellulose) (HPC)) was 3 of 6 and the survivor count (dose: 400.0 mg/kg/injection, schedule: Q01DX009 (ip), vehicle: acetone) was 6 of 6. For the same compound, the survivor count (dose: 600.0 mg/kg/injection, schedule: Q01DX001 (ip), vehicle: saline) was 6 of 6.
